# Assay results reported in PubChem BioAssay AID587 (National Center for Advancing Translational Sciences (NCATS), 2007).
# Screen size: about 59,000 compounds; about 35 (0.06%) were called active. Inconclusive means that the source gave no clear call. Such entries were picked first, then a sample of the others. No stated cut-off is given here; in the data, active means max dye-equivalent concentration above about 10 nM; inconclusive means between about 1.1 nM and that limit; inactive means weaker than that.
# Assay: qHTS Assay for Spectroscopic Profiling in Texas Red Spectral Region
# Details: Compound fluorescence, Texas Red channel, 547/618 nm; stronger effect = higher value
# How it was run: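 qHTS profiling of intrinsic compound fluorescence; 100 mM Tris pH 8.0; 15 min RT; ex 547 / em 618 nm; response expressed as Texas Red dye-equivalent concentration from six-point plate standard.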
row,Structure (SMILES),max dye-equivalent concentration
1,CC(CS(=O)(=O)c1cccc2cccnc12)N1CCCCC1 (configuration not stated),inactive
2,CCOC(=O)N1CCN(C(=O)c2cn(CCOC)c(=O)c3c2c2ccccc2n3C)CC1,inconclusive: 1.4 nM
3,CC(=O)Nc1ccc(S(=O)(=O)NCC2CCC(C(=O)NCCC(C)C)CC2)cc1 (configuration not stated),inconclusive: 1.6 nM
4,CCCCn1c(CN2CCN(C(=O)OCC)CC2)nc2c1c(=O)[nH]c(=O)n2C,inconclusive: 1.7 nM
5,Cc1cc(C)n(C(=O)c2cccc(S(=O)(=O)N3CCOCC3)c2)n1,inconclusive: 1.3 nM
6,CCCc1[nH]nc2c1C(c1ccncc1)C(C#N)=C(N)O2 (configuration not stated),inconclusive: 1.5 nM
7,COCCN1CN=C(Nc2nc(C)c3ccc(C)cc3n2)NC1,inconclusive: 1.1 nM
8,COc1ccc(OC)c(S(=O)(=O)Nc2ccc(CC(=O)O)cc2)c1,inconclusive: 1.3 nM
9,O=c1c(/C=N/O)coc2ccc3ccccc3c12,inconclusive: 1.5 nM
10,c1nc(COc2nsnc2N2CCOCC2)cs1,inconclusive: 1.4 nM
11,COc1ccccc1NC(=O)CSc1nc(O)cc(=O)[nH]1,inconclusive: 1.9 nM
12,CCOC(=O)N1CCN(Cc2nc3c(c(=O)[nH]c(=O)n3C)n2Cc2ccccc2C)CC1,inconclusive: 1.3 nM
13,COc1cc(C)c(Br)cc1S(=O)(=O)N1CCCC1,inconclusive: 2 nM
14,CCC(C)n1cnc2c(c1=O)c1nc3ccccc3nc1n2Cc1ccccc1OC (configuration not stated),inconclusive: 1.1 nM
15,COc1ccc(OC)c(S(=O)(=O)Nc2ccc(O)c3ccccc23)c1,inconclusive: 1.3 nM
16,Cn1cccc1C(=O)N1CCC2(CCCN(c3ccncc3)C2)CC1,inactive
17,COc1ccc(CCN2C(=O)c3[nH]nc(-c4ccccc4O)c3C2c2cccc(O)c2)cc1OC (configuration not stated),inconclusive: 1.1 nM
18,COc1ccccc1NC(=O)c1cc2ccc(O)cc2o/c1=N\O,inactive
19,COc1cc(C(=O)OC2CCCCC2=O)cc(OC)c1C (configuration not stated),inconclusive: 1.5 nM

row,Structure (SMILES),max dye-equivalent concentration
1,COc1ccc(Br)cc1CNC(=O)CCc1nc(-c2ccccc2F)no1,inconclusive: 1.1 nM
2,Cc1ccc2cc3c(NC(=O)c4ccco4)nn(C)c3nc2c1,inconclusive: 1.6 nM
3,CC(C)Sc1nc(N2CCCC2)c2c(c1C#N)CC(C)(C)OC2,inconclusive: 1.3 nM
4,CCCC(=O)Nc1ccc(NC(=O)c2ccccc2Cl)nc1,inactive
5,C=CCc1c(C)[nH]c2ccc(C)cc2c1=O,inconclusive: 1.1 nM
6,COc1cc(C(=O)OCC(=O)c2c[nH]c3ccccc23)ccc1OCC(=O)N1CCOCC1,inconclusive: 1.7 nM
7,COc1cc(C(=O)N(Cc2ccc(N(C)C)cc2)C2CCS(=O)(=O)C2)cc(OC)c1OC (configuration not stated),inconclusive: 2.1 nM
8,O=c1c2oc3ccccc3c2ncn1Cc1ccccc1Cl,inconclusive: 1.3 nM
9,Cn1c(=O)c2c(nc(SCC(=O)N3CCCc4ccccc43)n2C)n(C)c1=O,inconclusive: 1.3 nM
10,COc1cc(-c2nnc(COC(=O)CSc3cc(C)c4ccccc4n3)o2)cc(OC)c1OC,inconclusive: 1.4 nM
11,CCOC(=O)N1CCc2c(sc3c2C(=O)NC(c2ccc(-c4ccc(Cl)cc4)o2)N3)C1 (configuration not stated),inactive
12,COc1ccccc1-c1cncnc1Nc1ccc(F)cc1,inactive
13,COc1cc(OC)cc(-c2nc3nc(C)c(CCC(=O)NCc4ccco4)c(C)n3n2)c1,inconclusive: 1.1 nM
14,COc1ccc(-c2noc(CN(C(=O)c3ccc(OC(C)=O)cc3)C(C)C)n2)cc1OC,inconclusive: 1.4 nM
15,O=C(CSc1ccccc1C(=O)O)NCc1ccco1,inconclusive: 1.3 nM
16,CCOC(=O)N1CCC(NC(=O)CCCN2C(=O)CSc3ncccc32)CC1,inconclusive: 1.5 nM
17,Cc1ccc(S(=O)(=O)Nc2ccc3ncccc3c2)cc1,inconclusive: 1.2 nM
18,Cn1c(N)c(C(=O)COC(=O)c2cccs2)c(=O)n(C)c1=O,inconclusive: 1.4 nM
19,CCOc1ccc(C2C=C(c3ccc(C)cc3)Nc3ncnn32)cc1 (configuration not stated),inconclusive: 1.3 nM

# An excerpt from above in order of number of heavy atoms, largest number first:
row,Structure (SMILES),max dye-equivalent concentration
7,COc1cc(C(=O)N(Cc2ccc(N(C)C)cc2)C2CCS(=O)(=O)C2)cc(OC)c1OC (configuration not stated),inconclusive: 2.1 nM
11,CCOC(=O)N1CCc2c(sc3c2C(=O)NC(c2ccc(-c4ccc(Cl)cc4)o2)N3)C1 (configuration not stated),inactive
1,COc1ccc(Br)cc1CNC(=O)CCc1nc(-c2ccccc2F)no1,inconclusive: 1.1 nM

# Next structures follow:

row,Structure (SMILES),max dye-equivalent concentration
1,CCN(CC)CC(=O)Nc1ccc(-c2nc3cc(NC(=O)CN(CC)CC)ccc3o2)cc1,inconclusive: 1.1 nM
2,O=C(CSc1nnc(Cn2cnc3ccccc32)o1)c1ccccc1,inconclusive: 1.3 nM
3,CCN(CC)CCN1C(=O)c2cccc3cc(N)cc(c23)C1=O,inactive
4,Oc1ccc2cccnc2c1,inactive
5,CC1CCCCN1C(=O)CSc1ccc(-c2ccc(F)cc2)nn1 (configuration not stated),inconclusive: 1.5 nM
6,Cc1ccc(S(=O)(=O)c2nc(C)oc2NCc2ccccc2)cc1,inconclusive: 1.1 nM
7,CC(=O)n1nc(-c2cccnc2)nc1N,inconclusive: 1.3 nM
8,Nn1c(SCC(=O)Nc2ccc3c(c2)OCO3)nnc1-c1ccncc1,inconclusive: 1.5 nM
9,COc1ccc(-c2nc3cnc(N4CCOCC4)nc3n(CCC#N)c2=O)cc1,inconclusive: 1.5 nM
10,Cc1ccc2c(c1)nnn2C1CCN(CC(=O)NCCc2nc3ccccc3[nH]2)CC1,inconclusive: 2.9 nM
11,COc1cccc(Nc2ncc3nc(-c4ccc(F)cc4)c(=O)n(CCC#N)c3n2)c1,inactive
12,COc1ccc(C(=O)N[C@H]2COC(C)(C)O[C@H]2c2ccccc2)cc1,inconclusive: 1.3 nM
13,c1csc(-c2nn[nH]n2)c1,inconclusive: 1.2 nM
14,CCC(C(=O)Nc1nnc(-c2ccco2)s1)c1ccccc1 (configuration not stated),inconclusive: 1.1 nM
15,N[C@H](Cc1ccc(F)cc1)C(=O)O,inactive
16,CC1(C2(O)CC(c3ccccc3)ON2)CCCCC1 (configuration not stated),inconclusive: 1.2 nM
17,O=C(Cn1nnc(-c2ccccc2)n1)Nc1ccccc1N1CCOCC1,inconclusive: 1.1 nM
18,Cc1cc(NC(=O)COC(=O)C2COc3ccccc3O2)no1 (configuration not stated),inconclusive: 1.1 nM
19,CC1(C)N=C(N)N=C(N)N1c1cccc(CSc2ccccc2)c1,inactive

# Exported as tab-separated lines: 2 of the compounds above.
row	Structure (SMILES)	max dye-equivalent concentration
9	COc1ccc(-c2nc3cnc(N4CCOCC4)nc3n(CCC#N)c2=O)cc1	inconclusive: 1.5 nM
10	Cc1ccc2c(c1)nnn2C1CCN(CC(=O)NCCc2nc3ccccc3[nH]2)CC1	inconclusive: 2.9 nM
